Experimental data taken from patent US7608243 (dated 2009).

Columns and labels:
[1] = general procedure: Fmoc solid-phase peptide synthesis; O-Bis-(aminoethyl)ethylene glycol trityl resin; HBTU (HATU for PEG unit); details: whole synthesis, scale 0.25 mmol
[2] = general procedure: Fmoc solid-phase peptide synthesis; Rink Amide AM resin; HBTU (HATU for PEG unit); details: whole synthesis, scale 0.25 mmol

Substance	crude mass [1]	crude mass [2]
ClCH2CONH-Asp-Cys (tBu)-Arg-Gly-Asp-Cys (tBu)-Phe-Cys-Gly-NH— (CH2CH2O)2CH2CH2NH2	364 mg	
ClCH2CO-Lys-Cys(tBu)-Arg-Gly-Asp-Cys(tBu)-Phe-Cys-PEG-NH2		322 mg
